Data as given in PubChem BioAssay AID1224829 (NIAID, 2016)

Assay: 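Secondary check of hits that alter LPS-induced p65 translocation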 (follow-up of hits)
Cells: mouse RAW264.7 G9 macrophage reporter cells
Reagent: single siRNA against mouse genes, 100 nM
Duration: 2 days of siRNA knock-down, then 40 min of LPS before fixing
Treatment: LPS (Salmonella minnesota R595) at 10 ng/ml
Measurement: 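High-content images after 40 min LPS exposure; GFP-p65 nucleus to surrounding ring signal ratio, normalised to plate median and non-targeting control wells, expressed as z-score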
Reading the numbers: p65 translocation z-score and gene median z-score, per vendor: higher = more nuclear NF-kappaB p65 after LPS
Hit rule: 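Active means the replicate-mean z-score lies beyond plus or minus 2, in either direction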
Calls: active = changed p65 translocation (either direction); inactive = no clear change
Shown is one part, drawn at random, of about 3,800 reagents. 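Calls cover raised and lowered translocation; gene median uses one vendor's three siRNAs; qiagen siRNAs acted more weakly than ambion siRNAs.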 A number with no mark means an inactive call. Reagents against one gene are numbered here. Reagent sequences are not shown.

gene symbol | siRNA no. | siRNA vendor or control pool | p65 translocation z-score, replicate mean | p65 translocation z-score, replicate 1 | p65 translocation z-score, replicate 2 | gene median z-score, per vendor
Rps6kc1 (ribosomal protein S6 kinase C1) | 1 | ambion single siRNA | -0.717 | -0.0401 | -1.39 | 0.395
Rps6kc1 (ribosomal protein S6 kinase C1) | 2 | ambion single siRNA | 1.22 | 0.53 | 1.91 | 0.395
Rps6kc1 (ribosomal protein S6 kinase C1) | 3 | ambion single siRNA | 1.46 | 2.66 | 0.261 | 0.395
Rps6kc1 (ribosomal protein S6 kinase C1) | 4 | qiagen single siRNA | 1.76 | 0.375 | 3.15 | 0.118
Rps6kc1 (ribosomal protein S6 kinase C1) | 5 | qiagen single siRNA | -1.36 | -2.58 | -0.14 | 0.118
Rps6kc1 (ribosomal protein S6 kinase C1) | 6 | qiagen single siRNA | 1.29 | -0.485 | 3.06 | 0.118
Slc9a8 | 1 | ambion single siRNA | -2.93 (active) | -4.23 | -1.63 | -4.29
Slc9a8 | 2 | ambion single siRNA | -6.58 (active) | -7.57 | -5.59 | -4.29
Slc9a8 | 3 | ambion single siRNA | -3.53 (active) | -4.35 | -2.71 | -4.29
Slc9a8 | 4 | qiagen single siRNA | -0.213 | -0.291 | -0.135 | 0.838
Slc9a8 | 5 | qiagen single siRNA | 2.68 (active) | 2.62 | 2.74 | 0.838
Slc9a8 | 6 | qiagen single siRNA | 0.499 | -0.813 | 1.81 | 0.838
Washc2 (WASH complex subunit 2) | 1 | ambion single siRNA | -3.64 (active) | -3.11 | -4.17 | -4.45
Washc2 (WASH complex subunit 2) | 2 | ambion single siRNA | -5.69 (active) | -4.73 | -6.66 | -4.45
Washc2 (WASH complex subunit 2) | 3 | ambion single siRNA | -4.59 (active) | -4.12 | -5.05 | -4.45
Washc2 (WASH complex subunit 2) | 4 | qiagen single siRNA | 1.96 | 2.17 | 1.75 | 0.369
Washc2 (WASH complex subunit 2) | 5 | qiagen single siRNA | 0.369 | 0.0294 | 0.708 | 0.369
Washc2 (WASH complex subunit 2) | 6 | qiagen single siRNA | -1.27 | -0.634 | -1.9 | 0.369
Hnrnpd (heterogeneous nuclear ribonucleoprotein D) | 1 | ambion single siRNA | 1.47 | -0.0287 | 2.98 | -1.49
Hnrnpd (heterogeneous nuclear ribonucleoprotein D) | 2 | ambion single siRNA | -1.49 | -2.18 | -0.808 | -1.49
Hnrnpd (heterogeneous nuclear ribonucleoprotein D) | 3 | ambion single siRNA | -3.7 (active) | -3.86 | -3.54 | -1.49
Hnrnpd (heterogeneous nuclear ribonucleoprotein D) | 4 | qiagen single siRNA | 1.41 | -0.118 | 2.94 | 0.337
Hnrnpd (heterogeneous nuclear ribonucleoprotein D) | 5 | qiagen single siRNA | 0.337 | 0.0548 | 0.62 | 0.337
Hnrnpd (heterogeneous nuclear ribonucleoprotein D) | 6 | qiagen single siRNA | 1.16 | 2.32 | -0.00231 | 0.337

A portion of the results above:
gene symbol | siRNA no. | siRNA vendor or control pool | p65 translocation z-score, replicate mean | p65 translocation z-score, replicate 1 | p65 translocation z-score, replicate 2 | gene median z-score, per vendor
Washc2 (WASH complex subunit 2) | 6 | qiagen single siRNA | -1.27 | -0.634 | -1.9 | 0.369
Hnrnpd (heterogeneous nuclear ribonucleoprotein D) | 1 | ambion single siRNA | 1.47 | -0.0287 | 2.98 | -1.49

More results follow:
gene symbol | siRNA no. | siRNA vendor or control pool | p65 translocation z-score, replicate mean | p65 translocation z-score, replicate 1 | p65 translocation z-score, replicate 2 | gene median z-score, per vendor
Or5d43 (olfactory receptor family 5 subfamily D member 43) | 1 | ambion single siRNA | -3.74 (active) | -4.94 | -2.53 | -3.7
Or5d43 (olfactory receptor family 5 subfamily D member 43) | 2 | ambion single siRNA | -5.38 (active) | -6.53 | -4.23 | -3.7
Or5d43 (olfactory receptor family 5 subfamily D member 43) | 3 | ambion single siRNA | -2.29 (active) | -3.16 | -1.43 | -3.7
Or5d43 (olfactory receptor family 5 subfamily D member 43) | 4 | qiagen single siRNA | 1.53 | 2.14 | 0.923 | 1.74
Or5d43 (olfactory receptor family 5 subfamily D member 43) | 5 | qiagen single siRNA | 2.81 (active) | 2.26 | 3.35 | 1.74
Or5d43 (olfactory receptor family 5 subfamily D member 43) | 6 | qiagen single siRNA | 0.923 | 0.502 | 1.34 | 1.74
Prdm8 (PR domain containing 8) | 1 | ambion single siRNA | -1.72 | -1.4 | -2.03 | -1.07
Prdm8 (PR domain containing 8) | 2 | ambion single siRNA | -1.78 | -2.83 | -0.732 | -1.07
Prdm8 (PR domain containing 8) | 3 | ambion single siRNA | 1.52 | 2.43 | 0.605 | -1.07
Prdm8 (PR domain containing 8) | 4 | qiagen single siRNA | 2.39 (active) | 2.71 | 2.07 | -0.86
Prdm8 (PR domain containing 8) | 5 | qiagen single siRNA | -1.51 | -0.86 | -2.17 | -0.86
Prdm8 (PR domain containing 8) | 6 | qiagen single siRNA | -4.33 (active) | -4.33 | – | -0.86
